{"sequences": {"note": "The chains behind the UniProt entries cited, without tags or fusion partners. Where a name states a change or a piece, a line headed by the entry shows the natural chain unless it says otherwise.", "UniProt O00151": "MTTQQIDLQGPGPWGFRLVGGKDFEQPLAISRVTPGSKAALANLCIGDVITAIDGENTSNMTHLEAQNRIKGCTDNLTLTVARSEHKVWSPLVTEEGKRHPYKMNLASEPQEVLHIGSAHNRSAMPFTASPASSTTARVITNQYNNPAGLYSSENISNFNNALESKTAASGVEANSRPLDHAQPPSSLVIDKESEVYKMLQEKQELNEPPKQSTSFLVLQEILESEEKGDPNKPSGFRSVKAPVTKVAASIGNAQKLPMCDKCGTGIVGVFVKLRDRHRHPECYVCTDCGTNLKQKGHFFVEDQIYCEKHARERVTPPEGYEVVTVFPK", "UniProt Q6ZS72": "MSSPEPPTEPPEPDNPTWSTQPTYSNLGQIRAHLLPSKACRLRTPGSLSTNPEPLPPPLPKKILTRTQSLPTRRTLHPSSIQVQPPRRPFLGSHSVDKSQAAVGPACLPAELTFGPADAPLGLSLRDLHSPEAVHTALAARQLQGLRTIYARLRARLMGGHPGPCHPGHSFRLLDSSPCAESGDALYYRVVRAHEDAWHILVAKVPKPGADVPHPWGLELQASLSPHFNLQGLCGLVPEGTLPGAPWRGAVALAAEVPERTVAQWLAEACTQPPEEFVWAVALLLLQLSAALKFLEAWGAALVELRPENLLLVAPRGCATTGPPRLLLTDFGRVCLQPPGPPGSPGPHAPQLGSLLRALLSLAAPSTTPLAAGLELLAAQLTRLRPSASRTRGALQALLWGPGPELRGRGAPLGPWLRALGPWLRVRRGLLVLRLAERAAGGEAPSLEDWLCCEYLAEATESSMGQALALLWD", "UniProt Q96KB5": "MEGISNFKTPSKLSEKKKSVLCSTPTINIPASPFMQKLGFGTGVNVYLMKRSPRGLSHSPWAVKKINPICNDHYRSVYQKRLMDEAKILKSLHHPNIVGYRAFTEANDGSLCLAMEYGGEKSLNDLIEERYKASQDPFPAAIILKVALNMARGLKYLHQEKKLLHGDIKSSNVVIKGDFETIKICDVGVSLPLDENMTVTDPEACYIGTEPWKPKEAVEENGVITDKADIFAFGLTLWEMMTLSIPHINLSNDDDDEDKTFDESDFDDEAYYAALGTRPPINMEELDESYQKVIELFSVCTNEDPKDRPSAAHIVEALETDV", "UniProt Q6L8Q7": "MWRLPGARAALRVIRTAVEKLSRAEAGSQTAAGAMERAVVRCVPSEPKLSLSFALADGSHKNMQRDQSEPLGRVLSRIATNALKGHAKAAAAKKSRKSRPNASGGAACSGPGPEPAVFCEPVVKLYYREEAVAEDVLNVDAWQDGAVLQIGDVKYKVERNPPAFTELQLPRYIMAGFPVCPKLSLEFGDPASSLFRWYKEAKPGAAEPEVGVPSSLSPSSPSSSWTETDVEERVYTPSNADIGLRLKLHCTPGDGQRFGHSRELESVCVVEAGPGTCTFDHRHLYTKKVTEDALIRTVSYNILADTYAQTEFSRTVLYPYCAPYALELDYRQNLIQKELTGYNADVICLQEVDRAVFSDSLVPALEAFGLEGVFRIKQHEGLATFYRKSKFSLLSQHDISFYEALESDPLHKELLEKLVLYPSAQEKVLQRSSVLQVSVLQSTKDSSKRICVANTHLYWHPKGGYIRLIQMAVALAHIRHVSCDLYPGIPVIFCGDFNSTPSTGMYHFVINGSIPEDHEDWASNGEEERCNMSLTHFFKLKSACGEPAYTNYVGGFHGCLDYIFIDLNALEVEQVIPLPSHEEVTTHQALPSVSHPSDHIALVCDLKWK", "UniProt Q9UKL6": "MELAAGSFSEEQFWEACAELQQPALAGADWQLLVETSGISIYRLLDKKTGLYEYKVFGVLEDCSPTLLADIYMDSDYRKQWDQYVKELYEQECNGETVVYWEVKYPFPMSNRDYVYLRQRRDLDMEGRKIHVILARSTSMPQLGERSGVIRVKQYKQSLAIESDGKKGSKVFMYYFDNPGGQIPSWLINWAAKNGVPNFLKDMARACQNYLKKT", "UniProt Q86YH6": "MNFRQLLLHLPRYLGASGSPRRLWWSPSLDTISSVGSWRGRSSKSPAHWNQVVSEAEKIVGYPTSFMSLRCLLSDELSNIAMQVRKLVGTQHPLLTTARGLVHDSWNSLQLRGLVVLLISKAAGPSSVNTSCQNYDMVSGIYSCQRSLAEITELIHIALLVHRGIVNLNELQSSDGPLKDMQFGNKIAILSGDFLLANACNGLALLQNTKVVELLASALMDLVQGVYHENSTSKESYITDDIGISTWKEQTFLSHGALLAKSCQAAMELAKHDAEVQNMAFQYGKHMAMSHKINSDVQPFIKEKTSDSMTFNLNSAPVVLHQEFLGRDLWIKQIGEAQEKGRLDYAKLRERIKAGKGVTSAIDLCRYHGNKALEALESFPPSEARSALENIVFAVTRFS", "UniProt Q86U86, whole entry, looked up": "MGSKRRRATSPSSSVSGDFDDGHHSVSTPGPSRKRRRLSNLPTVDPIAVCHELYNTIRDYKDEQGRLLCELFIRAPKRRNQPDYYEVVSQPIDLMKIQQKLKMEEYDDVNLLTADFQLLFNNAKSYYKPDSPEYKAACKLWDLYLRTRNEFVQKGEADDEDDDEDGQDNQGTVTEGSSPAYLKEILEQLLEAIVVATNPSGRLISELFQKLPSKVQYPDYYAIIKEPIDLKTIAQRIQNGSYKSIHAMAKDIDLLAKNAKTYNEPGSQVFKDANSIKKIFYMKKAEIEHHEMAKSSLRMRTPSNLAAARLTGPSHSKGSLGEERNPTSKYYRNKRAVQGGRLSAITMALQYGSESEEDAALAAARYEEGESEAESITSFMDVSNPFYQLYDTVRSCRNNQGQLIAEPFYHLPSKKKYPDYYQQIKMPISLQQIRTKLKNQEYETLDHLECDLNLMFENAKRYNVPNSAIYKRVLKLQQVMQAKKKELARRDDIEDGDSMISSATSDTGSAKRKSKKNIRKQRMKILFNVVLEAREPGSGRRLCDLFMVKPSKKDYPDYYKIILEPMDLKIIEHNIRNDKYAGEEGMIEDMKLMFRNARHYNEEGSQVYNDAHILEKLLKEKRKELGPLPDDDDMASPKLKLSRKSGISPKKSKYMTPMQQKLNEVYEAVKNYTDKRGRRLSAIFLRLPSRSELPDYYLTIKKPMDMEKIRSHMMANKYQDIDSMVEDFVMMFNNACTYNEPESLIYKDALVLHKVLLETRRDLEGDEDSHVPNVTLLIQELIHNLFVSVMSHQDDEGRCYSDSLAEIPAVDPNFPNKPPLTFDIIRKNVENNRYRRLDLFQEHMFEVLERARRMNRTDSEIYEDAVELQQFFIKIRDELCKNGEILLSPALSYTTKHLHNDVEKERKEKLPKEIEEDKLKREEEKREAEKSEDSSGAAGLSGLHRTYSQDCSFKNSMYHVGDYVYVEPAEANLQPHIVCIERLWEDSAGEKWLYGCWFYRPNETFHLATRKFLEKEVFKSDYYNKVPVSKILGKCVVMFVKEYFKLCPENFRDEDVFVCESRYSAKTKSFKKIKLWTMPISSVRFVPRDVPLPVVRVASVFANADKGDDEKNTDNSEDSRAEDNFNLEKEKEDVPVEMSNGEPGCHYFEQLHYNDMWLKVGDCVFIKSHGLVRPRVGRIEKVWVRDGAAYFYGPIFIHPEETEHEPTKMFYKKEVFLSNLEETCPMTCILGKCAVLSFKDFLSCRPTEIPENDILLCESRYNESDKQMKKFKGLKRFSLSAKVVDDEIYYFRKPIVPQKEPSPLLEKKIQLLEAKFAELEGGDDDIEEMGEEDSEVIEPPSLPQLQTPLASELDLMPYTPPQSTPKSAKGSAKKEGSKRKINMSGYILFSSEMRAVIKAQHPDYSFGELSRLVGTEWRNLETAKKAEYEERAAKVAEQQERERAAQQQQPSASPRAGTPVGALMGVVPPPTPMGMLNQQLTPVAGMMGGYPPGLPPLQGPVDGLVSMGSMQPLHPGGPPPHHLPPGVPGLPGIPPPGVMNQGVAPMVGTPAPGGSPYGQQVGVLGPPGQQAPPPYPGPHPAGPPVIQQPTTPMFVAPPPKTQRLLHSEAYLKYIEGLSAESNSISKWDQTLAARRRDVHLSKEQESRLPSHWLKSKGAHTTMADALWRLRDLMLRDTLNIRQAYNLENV", "UniProt P40424": "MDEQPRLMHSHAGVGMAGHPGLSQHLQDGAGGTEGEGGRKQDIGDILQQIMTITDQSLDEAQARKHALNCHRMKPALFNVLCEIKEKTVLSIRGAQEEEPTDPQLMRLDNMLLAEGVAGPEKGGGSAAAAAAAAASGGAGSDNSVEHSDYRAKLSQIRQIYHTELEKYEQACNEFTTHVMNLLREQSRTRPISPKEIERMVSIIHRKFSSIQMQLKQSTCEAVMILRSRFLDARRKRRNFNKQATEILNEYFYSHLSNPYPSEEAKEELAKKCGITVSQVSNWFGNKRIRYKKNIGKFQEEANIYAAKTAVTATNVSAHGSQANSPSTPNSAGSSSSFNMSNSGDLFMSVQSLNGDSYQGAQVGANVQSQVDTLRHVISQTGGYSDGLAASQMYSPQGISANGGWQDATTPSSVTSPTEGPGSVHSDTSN", "UniProt O94913, whole entry, looked up": "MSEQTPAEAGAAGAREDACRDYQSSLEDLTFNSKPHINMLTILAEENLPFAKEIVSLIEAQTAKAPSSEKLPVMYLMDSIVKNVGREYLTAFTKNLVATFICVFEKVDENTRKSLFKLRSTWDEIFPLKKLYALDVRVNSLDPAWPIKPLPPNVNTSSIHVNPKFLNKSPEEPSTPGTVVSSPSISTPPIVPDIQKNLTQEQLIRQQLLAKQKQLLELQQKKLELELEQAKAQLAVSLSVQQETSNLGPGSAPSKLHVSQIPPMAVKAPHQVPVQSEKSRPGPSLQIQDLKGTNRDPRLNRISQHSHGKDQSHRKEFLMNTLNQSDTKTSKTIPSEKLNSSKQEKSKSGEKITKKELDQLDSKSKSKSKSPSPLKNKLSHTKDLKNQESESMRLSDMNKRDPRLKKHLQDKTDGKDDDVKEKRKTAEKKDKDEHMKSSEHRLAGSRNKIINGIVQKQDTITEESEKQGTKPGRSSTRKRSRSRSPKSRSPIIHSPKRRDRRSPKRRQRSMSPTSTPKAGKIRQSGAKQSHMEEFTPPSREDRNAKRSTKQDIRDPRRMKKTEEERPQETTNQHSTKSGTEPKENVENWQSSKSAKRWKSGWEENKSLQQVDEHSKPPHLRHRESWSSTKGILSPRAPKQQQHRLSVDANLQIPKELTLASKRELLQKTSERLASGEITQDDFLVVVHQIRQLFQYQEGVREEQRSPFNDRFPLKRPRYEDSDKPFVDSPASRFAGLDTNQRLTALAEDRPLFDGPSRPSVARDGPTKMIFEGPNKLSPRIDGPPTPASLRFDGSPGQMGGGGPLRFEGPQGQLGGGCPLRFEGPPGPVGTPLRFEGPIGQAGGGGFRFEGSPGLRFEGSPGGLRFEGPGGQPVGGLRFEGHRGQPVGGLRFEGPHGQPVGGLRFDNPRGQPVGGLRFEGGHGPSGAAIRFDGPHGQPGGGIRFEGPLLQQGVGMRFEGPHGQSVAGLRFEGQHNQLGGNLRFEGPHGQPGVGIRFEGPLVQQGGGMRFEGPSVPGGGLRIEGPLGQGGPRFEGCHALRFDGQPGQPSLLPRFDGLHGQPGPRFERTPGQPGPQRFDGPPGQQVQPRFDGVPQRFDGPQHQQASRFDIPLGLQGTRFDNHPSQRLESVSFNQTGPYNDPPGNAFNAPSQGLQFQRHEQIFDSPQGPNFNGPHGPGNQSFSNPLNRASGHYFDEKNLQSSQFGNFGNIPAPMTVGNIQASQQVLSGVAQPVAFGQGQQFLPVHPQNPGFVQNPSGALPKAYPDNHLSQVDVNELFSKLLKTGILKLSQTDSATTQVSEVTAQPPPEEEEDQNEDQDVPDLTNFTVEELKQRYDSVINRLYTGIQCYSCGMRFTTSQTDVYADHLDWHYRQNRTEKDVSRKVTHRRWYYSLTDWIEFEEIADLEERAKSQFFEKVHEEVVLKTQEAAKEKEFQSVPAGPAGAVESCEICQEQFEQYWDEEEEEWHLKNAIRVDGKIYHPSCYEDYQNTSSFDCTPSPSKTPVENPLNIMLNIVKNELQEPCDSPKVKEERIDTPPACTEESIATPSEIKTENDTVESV", "UniProt O15530": "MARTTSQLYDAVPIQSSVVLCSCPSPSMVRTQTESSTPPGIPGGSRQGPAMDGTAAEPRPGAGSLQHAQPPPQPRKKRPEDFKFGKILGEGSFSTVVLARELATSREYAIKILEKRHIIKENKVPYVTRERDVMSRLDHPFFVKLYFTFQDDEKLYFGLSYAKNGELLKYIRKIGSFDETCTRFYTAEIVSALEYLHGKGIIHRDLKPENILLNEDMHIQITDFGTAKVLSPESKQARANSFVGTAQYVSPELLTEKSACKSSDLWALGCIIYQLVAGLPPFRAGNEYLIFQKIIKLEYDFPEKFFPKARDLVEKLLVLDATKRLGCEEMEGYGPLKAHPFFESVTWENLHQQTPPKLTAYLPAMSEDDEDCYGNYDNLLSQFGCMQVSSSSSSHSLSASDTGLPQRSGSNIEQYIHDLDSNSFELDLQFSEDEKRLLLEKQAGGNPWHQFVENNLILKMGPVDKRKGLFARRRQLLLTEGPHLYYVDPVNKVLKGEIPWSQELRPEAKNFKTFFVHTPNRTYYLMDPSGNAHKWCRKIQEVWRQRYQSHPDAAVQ"}, "source": "the supplement of paper PMC12067093", "about": "“Discovery and optimisation of a covalent ligand for TRIM25 and its application to targeted protein ubiquitination” (Chemical Science, 2025)", "note": "The list shows a part of the results.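 Further: competitive profiling in live THP-1 cells: cysteine peptides tagged with an iodoacetamide desthiobiotin (IA-DTB) probe, intensity after compound treatment relative to DMSO-treated cells.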"}
{"compound": "Cc1cc(ccc1-c1ccccc1)C(=O)N1CCCN(CC1)C(=O)CCl [compound 10]", "test": "probe-labelled cysteine peptide fold change vs DMSO (competition) (log2 fold change); higher = less target engagement (more negative = stronger competition)", "conditions": "10 µM; THP-1; incubation time: 4 h"}
{"target": "PDLIM2_Q96JY6_310_YRHPGCYTCADCGLNLK (UniProt Q96JY6)", "probe-labelled cysteine peptide fold change": 0.00151}
{"target": "PDLIM1_O00151_73_GCTDNLTLTVAR (UniProt O00151)", "probe-labelled cysteine peptide fold change": 0.00437}
{"target": "PCM1_Q15154_1717_IEATGVIQSCAK (UniProt Q15154)", "probe-labelled cysteine peptide fold change": -0.344}
{"target": "PEAK3_Q6ZS72_318_GCATTGPPR (UniProt Q6ZS72)", "probe-labelled cysteine peptide fold change": -0.0167}
{"target": "PDCD11_Q14690_81_EKFEILSVESLCEGMR (UniProt Q14690)", "probe-labelled cysteine peptide fold change": -0.135}
{"target": "PBK_Q96KB5_70_INPICNDHYR (UniProt Q96KB5)", "probe-labelled cysteine peptide fold change": -0.139}
{"target": "PDE12_Q6L8Q7_250_LHCTPGDGQR (UniProt Q6L8Q7)", "probe-labelled cysteine peptide fold change": 0.0594}
{"target": "PDLIM5_Q96HC4_213_QPTVTSVCSETSQELAEGQRR (UniProt Q96HC4)", "probe-labelled cysteine peptide fold change": -0.255}
{"target": "PCTP_Q9UKL6_93_ELYEQECNGETVVYWEVK (UniProt Q9UKL6)", "probe-labelled cysteine peptide fold change": 0.0726}
{"target": "PARP4_Q9UKK3_380_CKIEHVEQNTEEFLR (UniProt Q9UKK3)", "probe-labelled cysteine peptide fold change": -0.349}
{"target": "PAXIP1_Q6ZW49_997_AIVECAGGK (UniProt Q6ZW49)", "probe-labelled cysteine peptide fold change": -0.0036}
{"target": "PDS5A_Q29RF7_1079_LYTVCDVALCVINSK (UniProt Q29RF7)", "probe-labelled cysteine peptide fold change": 0.0414}
{"target": "PDCD11_Q14690_1062_SIKPTHVVVTLEDGIIGCIHASHILDDVPEGTSPTTK (UniProt Q14690)", "probe-labelled cysteine peptide fold change": 0.0044}
{"target": "PCGF5_Q86SE9_42_TCIVQHFEDSNDCPR (UniProt Q86SE9)", "probe-labelled cysteine peptide fold change": 0.0193}
{"target": "PDCD11_Q14690_1218_TLLCLSLTGPHK (UniProt Q14690)", "probe-labelled cysteine peptide fold change": -0.0371}
{"target": "PDXK_O00764_5_MEEECR (UniProt O00764)", "probe-labelled cysteine peptide fold change": 0.11}
{"target": "PDSS2_Q86YH6_71_CLLSDELSNIAMQVR (UniProt Q86YH6)", "probe-labelled cysteine peptide fold change": -0.424}
{"target": "PBRM1_Q86U86_50_LSNLPTVDPIAVCHELYNTIR (UniProt Q86U86)", "probe-labelled cysteine peptide fold change": -0.121}
{"target": "PBX1_P40424_172_YEQACNEFTTHVMNLLR (UniProt P40424)", "probe-labelled cysteine peptide fold change": 0.0689}
{"target": "PCF11_O94913_1346_LYTGIQCYSCGMR (UniProt O94913)", "probe-labelled cysteine peptide fold change": 0.117}
{"target": "PDCD4_Q53EL6_288_GTVDCVQAR (UniProt Q53EL6)", "probe-labelled cysteine peptide fold change": 0.204}
{"target": "PDPK1_O15530_181_IGSFDETCTR (UniProt O15530)", "probe-labelled cysteine peptide fold change": 0.00296}
{"compound": "Cc1cc(ccc1-c1ccccc1)C(=O)N1CCCN(CC1)C(=O)CCl [compound 10]", "test": "probe-labelled cysteine peptide fold change vs DMSO (competition) (log2 fold change); higher = less target engagement (more negative = stronger competition)", "conditions": "50 µM; THP-1; incubation time: 4 h"}
{"target": "PDLIM7_Q9NR12_311_YLVALGHAYHPEEFVCSQCGK (UniProt Q9NR12)", "probe-labelled cysteine peptide fold change": -0.0245}
{"target": "PDS5A_Q29RF7_742_QAVHCIHAIFTNK (UniProt Q29RF7)", "probe-labelled cysteine peptide fold change": 0.0956}
{"target": "PDLIM7_Q9NR12_308+311_YLVALGHAYHPEEFVCSQCGK (UniProt Q9NR12)", "probe-labelled cysteine peptide fold change": -0.0825}
{"target": "PDE1A_P54750_406_EAELGLPFSPLCDR (UniProt P54750)", "probe-labelled cysteine peptide fold change": 0.0509}
{"target": "PCBP2_Q15366-2_302_GYWAGLDASAQTTSHELTIPNDLIGCIIGR (UniProt Q15366)", "probe-labelled cysteine peptide fold change": 0.222}
{"target": "PCBP1_Q15365_109_LVVPATQCGSLIGK (UniProt Q15365)", "probe-labelled cysteine peptide fold change": -0.243}
{"target": "PBLD_P30039_24_GNPAAVCLLENELDEDMHQK (UniProt P30039)", "probe-labelled cysteine peptide fold change": -0.0879}
{"target": "PDF_Q9HBH1_172+181_LVTFPEGCESVAGFLACVPR (UniProt Q9HBH1)", "probe-labelled cysteine peptide fold change": 0.0366}
{"target": "PBDC1_Q9BVG4_125_LDCSQGYTEENTIFAPR (UniProt Q9BVG4)", "probe-labelled cysteine peptide fold change": 0.256}
{"target": "PDLIM5_Q96HC4_420_TPMCAHCNQVIR (UniProt Q96HC4)", "probe-labelled cysteine peptide fold change": -0.199}
{"target": "PDCD11_Q14690_330+333_ACILCVHPR (UniProt Q14690)", "probe-labelled cysteine peptide fold change": 0.0766}
{"target": "PDPR_Q8NCN5_735_FFAFWGQDINNLTTPLECGR (UniProt Q8NCN5)", "probe-labelled cysteine peptide fold change": 0.123}
{"target": "PDCD2L_Q9BRP1_100_SQCLQVPER (UniProt Q9BRP1)", "probe-labelled cysteine peptide fold change": 0.166}
{"target": "PCM1_Q15154_1867_NDQNNCPVK (UniProt Q15154)", "probe-labelled cysteine peptide fold change": 0.367}
{"target": "PDIA3_P30101_57+60_ISDTGSAGLMLVEFFAPWCGHCK (UniProt P30101)", "probe-labelled cysteine peptide fold change": -0.72}
{"target": "PCNT_O95613_357_DLCLENLR (UniProt O95613)", "probe-labelled cysteine peptide fold change": 0.13}
{"target": "PDLIM2_Q96JY6_310_YRHPGCYTCADCGLNLK (UniProt Q96JY6)", "probe-labelled cysteine peptide fold change": -0.173}
{"target": "PDLIM1_O00151_73_GCTDNLTLTVAR (UniProt O00151)", "probe-labelled cysteine peptide fold change": 0.0725}
{"target": "PCM1_Q15154_1717_IEATGVIQSCAK (UniProt Q15154)", "probe-labelled cysteine peptide fold change": -0.184}
{"target": "PEAK3_Q6ZS72_318_GCATTGPPR (UniProt Q6ZS72)", "probe-labelled cysteine peptide fold change": -0.144}
{"target": "PDCD11_Q14690_81_EKFEILSVESLCEGMR (UniProt Q14690)", "probe-labelled cysteine peptide fold change": -0.379}
{"target": "PBK_Q96KB5_70_INPICNDHYR (UniProt Q96KB5)", "probe-labelled cysteine peptide fold change": -0.279}
{"target": "PDE12_Q6L8Q7_250_LHCTPGDGQR (UniProt Q6L8Q7)", "probe-labelled cysteine peptide fold change": -0.0481}
{"target": "PDLIM5_Q96HC4_213_QPTVTSVCSETSQELAEGQRR (UniProt Q96HC4)", "probe-labelled cysteine peptide fold change": -0.205}
{"target": "PCTP_Q9UKL6_93_ELYEQECNGETVVYWEVK (UniProt Q9UKL6)", "probe-labelled cysteine peptide fold change": 0.0148}
{"target": "PARP4_Q9UKK3_380_CKIEHVEQNTEEFLR (UniProt Q9UKK3)", "probe-labelled cysteine peptide fold change": -0.37}
{"target": "PAXIP1_Q6ZW49_997_AIVECAGGK (UniProt Q6ZW49)", "probe-labelled cysteine peptide fold change": -0.213}
{"target": "PDS5A_Q29RF7_1079_LYTVCDVALCVINSK (UniProt Q29RF7)", "probe-labelled cysteine peptide fold change": -0.159}
{"target": "PDCD11_Q14690_1062_SIKPTHVVVTLEDGIIGCIHASHILDDVPEGTSPTTK (UniProt Q14690)", "probe-labelled cysteine peptide fold change": 0.201}
{"target": "PCGF5_Q86SE9_42_TCIVQHFEDSNDCPR (UniProt Q86SE9)", "probe-labelled cysteine peptide fold change": 0.0542}
{"target": "PDCD11_Q14690_1218_TLLCLSLTGPHK (UniProt Q14690)", "probe-labelled cysteine peptide fold change": 0.106}
{"target": "PDXK_O00764_5_MEEECR (UniProt O00764)", "probe-labelled cysteine peptide fold change": 0.193}
{"target": "PDSS2_Q86YH6_71_CLLSDELSNIAMQVR (UniProt Q86YH6)", "probe-labelled cysteine peptide fold change": -2.09}
{"target": "PBRM1_Q86U86_50_LSNLPTVDPIAVCHELYNTIR (UniProt Q86U86)", "probe-labelled cysteine peptide fold change": 0.0706}
{"target": "PBX1_P40424_172_YEQACNEFTTHVMNLLR (UniProt P40424)", "probe-labelled cysteine peptide fold change": 0.267}
{"target": "PCF11_O94913_1346_LYTGIQCYSCGMR (UniProt O94913)", "probe-labelled cysteine peptide fold change": 0.154}
{"target": "PDCD4_Q53EL6_288_GTVDCVQAR (UniProt Q53EL6)", "probe-labelled cysteine peptide fold change": -0.0332}
{"target": "PDPK1_O15530_181_IGSFDETCTR (UniProt O15530)", "probe-labelled cysteine peptide fold change": 0.209}
